In publication PMC9179855:
Results are given in words; binding and its absence hold for the method and conditions named. In cells and extracts the contact can be indirect. Binding can be weak; no strength is given.

Biological target: MUC1 C-terminal subunit (MUC1-C) (human (endogenous in BT-549))
Test: co-IP; nuclear lysates of BT-549 cells stimulated with IFN-β for 4 h; DNA digested with 20 U/mL DNase for 30 min at 37 °C; anti-MUC1-C (#MA5-11202) at 4 °C overnight, Dynabeads Protein G for 2 h at 4 °C; control IgG; precipitates immunoblotted

B1: IRF1 (protein, UniProt P10914 1-325)
chain: MPITRMRMRPWLEMQINSNQIPGLIWINKEEMIFQIPWKHAAKHGWDINKDACLFRSWAIHTGRYKAGEKEPDPKTWKANFRCAMNSLPDIEEVKDQSRNKGSSAVRVYRMLPPLTKNQRKERKSKSSRDAKSKAKRKSCGDSSPDTFSDGLSSSTLPDDHSSYTVPGYMQDLEVEQALTPALSPCAVSSTLPDWHIPVEVVPDSTSDLYNFQVSPMPSTSEATTDEDEEGKLPEDIMKLLEQSEWQPTNVDGKGYLLNEPGVQPTSVYGDFSCKEEPEIDSPGGDIGLSLQRVFTDLKNMDATWLDSLLTPVRLPSIQAIPCAP
- binding: binds
